The list shows a part of the results.
Key:
Assay in all cases: glycan array binding signal (z-score within array); higher = stronger binding
Settings in all cases: glycan notation: IUPAC condensed, linker removed
Fuc(a1-2)Gal = target: Fuc(a1-2)Gal
How it was run: (§1)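 Glycan array data were curated from 3228 arrays in the Consortium for Functional Glycomics database and kept only where the protein sequence was available. Glycan names were converted to IUPAC-condensed notation, and columns mapping to the same glycan were averaged. The binding signal is a within-array Z-score, averaged across arrays of the same protein sequence at different concentrations or buffers and across linkers. Negative Z-scores can be read as non-binding.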

Fuc(a1-2)Gal(b1-3)GalNAc = target: Fuc(a1-2)Gal(b1-3)GalNAc
How it was run: as §1

[1] = target: Fuc(a1-2)Gal(b1-3)GalNAc(b1-3)Gal
How it was run: as §1

[2] = target: Fuc(a1-2)Gal(b1-3)GalNAc(b1-3)Gal(a1-4)Gal(b1-4)Glc
How it was run: as §1

[3] = target: Fuc(a1-2)Gal(b1-3)GalNAc(b1-4)[Neu5Ac(a2-3)]Gal(b1-4)Glc
How it was run: as §1

Fuc(a1-2)Gal(b1-3)GlcNAc = target: Fuc(a1-2)Gal(b1-3)GlcNAc
How it was run: as §1

[4] = target: Fuc(a1-2)Gal(b1-3)GlcNAc(b1-3)Gal(b1-4)Glc
How it was run: as §1

[5] = target: Fuc(a1-2)Gal(b1-3)[Fuc(a1-4)]GlcNAc
How it was run: as §1

Fuc(a1-2)Gal(b1-4)Glc = target: Fuc(a1-2)Gal(b1-4)Glc
How it was run: as §1

Fuc(a1-2)Gal(b1-4)Glc6S = target: Fuc(a1-2)Gal(b1-4)Glc6S
How it was run: as §1

Fuc(a1-2)Gal(b1-4)GlcNAc = target: Fuc(a1-2)Gal(b1-4)GlcNAc
How it was run: as §1

[6] = target: Fuc(a1-2)Gal(b1-4)GlcNAc(b1-3)Gal(b1-4)GlcNAc
How it was run: as §1

[7] = target: Fuc(a1-2)Gal(b1-4)GlcNAc(b1-3)Gal(b1-4)GlcNAc(b1-3)Gal(b1-4)GlcNAc
How it was run: as §1

[8] = target: Fuc(a1-2)Gal(b1-4)GlcNAc6S
How it was run: as §1

[9] = target: Fuc(a1-2)Gal(b1-4)[Fuc(a1-3)]GlcNAc
How it was run: as §1

[10] = target: Fuc(a1-2)Gal(b1-4)[Fuc(a1-3)]GlcNAc(b1-3)Gal(b1-4)[Fuc(a1-3)]GlcNAc
How it was run: as §1

[11] = target: Fuc(a1-2)Gal(b1-4)[Fuc(a1-3)]GlcNAc(b1-3)Gal(b1-4)[Fuc(a1-3)]GlcNAc(b1-3)Gal(b1-4)[Fuc(a1-3)]GlcNAc
How it was run: as §1

Fuc(a1-2)Gal6S(b1-4)Glc = target: Fuc(a1-2)Gal6S(b1-4)Glc
How it was run: as §1

[12] = target: Fuc(a1-2)Gal6S(b1-4)Glc6S
How it was run: as §1

[13] = target: Fuc(a1-2)Gal6S(b1-4)GlcNAc
How it was run: as §1

Fuc(a1-2)[Gal(a1-3)]Gal = target: Fuc(a1-2)[Gal(a1-3)]Gal
How it was run: as §1

[14] = target: Fuc(a1-2)[Gal(a1-3)]Gal(b1-3)GlcNAc
How it was run: as §1

[15] = target: Fuc(a1-2)[Gal(a1-3)]Gal(b1-4)Glc
How it was run: as §1

[16] = target: Fuc(a1-2)[Gal(a1-3)]Gal(b1-4)GlcNAc
How it was run: as §1

[17] = target: Fuc(a1-2)[Gal(a1-3)]Gal(b1-4)[Fuc(a1-3)]GlcNAc
How it was run: as §1

[18] = target: Fuc(a1-2)[Gal(a1-4)]Gal(b1-4)GlcNAc
How it was run: as §1

[19] = target: Fuc(a1-2)[GalNAc(a1-3)]Gal
How it was run: as §1

[20] = target: Fuc(a1-2)[GalNAc(a1-3)]Gal(b1-3)GlcNAc
How it was run: as §1

[21] = target: Fuc(a1-2)[GalNAc(a1-3)]Gal(b1-4)Glc
How it was run: as §1

[22] = target: Fuc(a1-2)[GalNAc(a1-3)]Gal(b1-4)GlcNAc
How it was run: as §1

[23] = target: Fuc(a1-2)[GalNAc(a1-3)]Gal(b1-4)[Fuc(a1-3)]GlcNAc
How it was run: as §1

[24] = target: Fuc(a1-2)[GalNAc(a1-4)]Gal(b1-4)GlcNAc
How it was run: as §1

[25] = target: Fuc(a1-2)[GalNAc(b1-3)]Gal
How it was run: as §1

Fuc(a1-3)GlcNAc = target: Fuc(a1-3)GlcNAc
How it was run: as §1

[26] = target: Fuc(a1-3)[Gal(b1-4)]Glc6S
How it was run: as §1

[27] = target: Fuc(a1-3)[Gal(b1-4)]GlcNAc
How it was run: as §1

[28] = target: Fuc(a1-3)[Gal(b1-4)]GlcNAc(b1-3)Gal(b1-3)[Fuc(a1-4)]GlcNAc
How it was run: as §1

[29] = target: Fuc(a1-3)[Gal(b1-4)]GlcNAc(b1-4)Gal(b1-4)[Fuc(a1-3)]GlcNAc
How it was run: as §1

[30] = target: Fuc(a1-3)[Gal(b1-4)]GlcNAc(b1-4)Gal(b1-4)[Fuc(a1-3)]GlcNAc(b1-4)Gal(b1-4)[Fuc(a1-3)]GlcNAc
How it was run: as §1

[31] = target: Fuc(a1-3)[Gal(b1-4)]GlcNAc6S
How it was run: as §1

[32] = target: Fuc(a1-3)[Gal3S(b1-4)]Glc6S
How it was run: as §1

[33] = target: Fuc(a1-3)[Gal3S(b1-4)]GlcNAc
How it was run: as §1

[34] = target: Fuc(a1-3)[Gal3S(b1-4)]GlcNAc6S
How it was run: as §1

[35] = target: Fuc(a1-3)[GalNAc(b1-4)]GlcNAc
How it was run: as §1

Fuc(a1-4)GlcNAc = target: Fuc(a1-4)GlcNAc
How it was run: as §1

B1: SrpA (Streptococcus sanguis) (protein)
chain: SSKSESTVNSQSASSETNRSSTNNGSTSSSSETARVRKRRATDTTPPTITVPSDIIAYRGEEFEFYFEITDDSGQVKNIELSTFGKPLGLNWLEYSEDNFNVPGNATSDNPLRVRVHGTVPLNEPIPADKNRAQFTRTIRAWDAAGNVSSNITFVIKYRAQTDKYNPADPTITYVDRLSSLSPSEKNAVEAAVRAANPQIPAAARITVSANGTVTITYPDSSTDTITANRVVKDLASSRSALT
glycan array binding signal (z-score) (Fuc(a1-2)Gal): 0.466
glycan array binding signal (z-score) (Fuc(a1-2)Gal(b1-3)GalNAc): 0.015
glycan array binding signal (z-score) [1]: 0.055
glycan array binding signal (z-score) [2]: -0.361
glycan array binding signal (z-score) [3]: -0.359
glycan array binding signal (z-score) (Fuc(a1-2)Gal(b1-3)GlcNAc): -0.658
glycan array binding signal (z-score) [4]: -0.548
glycan array binding signal (z-score) [5]: -0.701
glycan array binding signal (z-score) (Fuc(a1-2)Gal(b1-4)Glc): -0.111
glycan array binding signal (z-score) (Fuc(a1-2)Gal(b1-4)Glc6S): -0.719
glycan array binding signal (z-score) (Fuc(a1-2)Gal(b1-4)GlcNAc): 0.235
glycan array binding signal (z-score) [6]: -0.109
glycan array binding signal (z-score) [7]: 2.25
glycan array binding signal (z-score) [8]: -0.657
glycan array binding signal (z-score) [9]: 0.445
glycan array binding signal (z-score) [10]: -0.422
glycan array binding signal (z-score) [11]: 0.173
glycan array binding signal (z-score) (Fuc(a1-2)Gal6S(b1-4)Glc): -0.532
glycan array binding signal (z-score) [12]: -0.486
glycan array binding signal (z-score) [13]: 0.042
glycan array binding signal (z-score) (Fuc(a1-2)[Gal(a1-3)]Gal): 0.762
glycan array binding signal (z-score) [14]: -0.652
glycan array binding signal (z-score) [15]: -0.758
glycan array binding signal (z-score) [16]: 0.089
glycan array binding signal (z-score) [17]: -0.042
glycan array binding signal (z-score) [18]: -0.029
glycan array binding signal (z-score) [19]: 1.11
glycan array binding signal (z-score) [20]: 0.203
glycan array binding signal (z-score) [21]: -0.436
glycan array binding signal (z-score) [22]: -0.075
glycan array binding signal (z-score) [23]: -0.341
glycan array binding signal (z-score) [24]: 1.31
glycan array binding signal (z-score) [25]: -0.463
glycan array binding signal (z-score) (Fuc(a1-3)GlcNAc): 0.064
glycan array binding signal (z-score) [26]: 0.486
glycan array binding signal (z-score) [27]: -0.299
glycan array binding signal (z-score) [28]: -0.157
glycan array binding signal (z-score) [29]: 1.24
glycan array binding signal (z-score) [30]: -0.758
glycan array binding signal (z-score) [31]: 0.652
glycan array binding signal (z-score) [32]: 1.34
glycan array binding signal (z-score) [33]: 0.403
glycan array binding signal (z-score) [34]: 1.06
glycan array binding signal (z-score) [35]: -0.159
glycan array binding signal (z-score) (Fuc(a1-4)GlcNAc): -0.454

From the supplement of paper PMC8728848
